# Measurements from the supplement of paper PMC8728848.
# This is one part of the list.
# Tests used:
# Assay in all cases: glycan array binding signal (z-score within array); higher = stronger binding
# Conditions in all cases: glycan notation: IUPAC condensed, linker removed
# Neu5Ac(a2-3)Gal(b1-4)Glc = molecular target: Neu5Ac(a2-3)Gal(b1-4)Glc
# In short: (§1)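 The binding signal is a Z-score computed within each array. Data were drawn from 3228 arrays in the Consortium for Functional Glycomics database, restricted to those with a known protein sequence. Scores were averaged over arrays of the same protein sequence at different concentrations or buffers, and over linkers, and negative values can be taken as non-binding.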
# [1] = molecular target: Neu5Ac(a2-3)Gal(b1-4)GlcNAc
# In short: as §1
# [2] = molecular target: Neu5Ac(a2-3)Gal(b1-4)GlcNAc(b1-2)Man
# In short: as §1
# [3] = molecular target: Neu5Ac(a2-3)Gal(b1-4)GlcNAc(b1-2)Man(a1-3)[GlcNAc(b1-4)][Neu5Ac(a2-3)Gal(b1-4)GlcNAc(b1-2)Man(a1-6)]Man(b1-4)GlcNAc(b1-4)GlcNAc
# In short: as §1
# [4] = molecular target: Neu5Ac(a2-3)Gal(b1-4)GlcNAc(b1-2)Man(a1-3)[Neu5Ac(a2-3)Gal(b1-4)GlcNAc(b1-2)Man(a1-6)]Man(b1-4)GlcNAc(b1-4)GlcNAc
# In short: as §1
# [5] = molecular target: Neu5Ac(a2-3)Gal(b1-4)GlcNAc(b1-2)Man(a1-3)[Neu5Ac(a2-3)Gal(b1-4)GlcNAc(b1-2)Man(a1-6)]Man(b1-4)GlcNAc(b1-4)[Fuc(a1-6)]GlcNAc
# In short: as §1
# [6] = molecular target: Neu5Ac(a2-3)Gal(b1-4)GlcNAc(b1-2)Man(a1-3)[Neu5Ac(a2-6)Gal(b1-4)GlcNAc(b1-2)Man(a1-6)]Man(b1-4)GlcNAc(b1-4)GlcNAc
# In short: as §1
# [7] = molecular target: Neu5Ac(a2-3)Gal(b1-4)GlcNAc(b1-2)[Neu5Ac(a2-3)Gal(b1-4)GlcNAc(b1-4)]Man(a1-3)[GlcNAc(b1-4)][Neu5Ac(a2-3)Gal(b1-4)GlcNAc(b1-2)[Neu5Ac(a2-3)Gal(b1-4)GlcNAc(b1-6)]Man(a1-6)]Man(b1-4)GlcNAc(b1-4)GlcNAc
# In short: as §1
# [8] = molecular target: Neu5Ac(a2-3)Gal(b1-4)GlcNAc(b1-2)[Neu5Ac(a2-3)Gal(b1-4)GlcNAc(b1-4)]Man(a1-3)[GlcNAc(b1-4)][Neu5Ac(a2-3)Gal(b1-4)GlcNAc(b1-4)Man(a1-6)]Man(b1-4)GlcNAc(b1-4)GlcNAc
# In short: as §1
# [9] = molecular target: Neu5Ac(a2-3)Gal(b1-4)GlcNAc(b1-2)[Neu5Ac(a2-3)Gal(b1-4)GlcNAc(b1-6)]Man(a1-6)[Neu5Ac(a2-3)Gal(b1-4)GlcNAc(b1-2)Man(a1-3)]Man(b1-4)GlcNAc(b1-4)GlcNAc
# In short: as §1
# [10] = molecular target: Neu5Ac(a2-3)Gal(b1-4)GlcNAc(b1-2)[Neu5Ac(a2-3)Gal(b1-4)GlcNAc(b1-6)]Man(a1-6)[Neu5Ac(a2-3)Gal(b1-4)GlcNAc(b1-2)Man(a1-3)][GlcNAc(b1-4)]Man(b1-4)GlcNAc(b1-4)GlcNAc
# In short: as §1
# [11] = molecular target: Neu5Ac(a2-3)Gal(b1-4)GlcNAc(b1-3)Gal
# In short: as §1
# [12] = molecular target: Neu5Ac(a2-3)Gal(b1-4)GlcNAc(b1-3)Gal(b1-3)GlcNAc
# In short: as §1
# [13] = molecular target: Neu5Ac(a2-3)Gal(b1-4)GlcNAc(b1-3)Gal(b1-4)GlcNAc
# In short: as §1
# [14] = molecular target: Neu5Ac(a2-3)Gal(b1-4)GlcNAc(b1-3)Gal(b1-4)GlcNAc(b1-2)Man(a1-3)[Neu5Ac(a2-3)Gal(b1-4)GlcNAc(b1-3)Gal(b1-4)GlcNAc(b1-2)Man(a1-6)]Man(b1-4)GlcNAc(b1-4)GlcNAc
# In short: as §1
# [15] = molecular target: Neu5Ac(a2-3)Gal(b1-4)GlcNAc(b1-3)Gal(b1-4)GlcNAc(b1-3)Gal(b1-4)GlcNAc
# In short: as §1
# [16] = molecular target: Neu5Ac(a2-3)Gal(b1-4)GlcNAc(b1-3)Gal(b1-4)GlcNAc(b1-3)Gal(b1-4)GlcNAc(b1-2)Man(a1-3)[Neu5Ac(a2-3)Gal(b1-4)GlcNAc(b1-3)Gal(b1-4)GlcNAc(b1-3)Gal(b1-4)GlcNAc(b1-2)Man(a1-6)]GalNAc
# In short: as §1
# [17] = molecular target: Neu5Ac(a2-3)Gal(b1-4)GlcNAc(b1-3)Gal(b1-4)GlcNAc(b1-3)GalNAc
# In short: as §1
# [18] = molecular target: Neu5Ac(a2-3)Gal(b1-4)GlcNAc(b1-3)Gal(b1-4)GlcNAc(b1-3)[Neu5Ac(a2-3)Gal(b1-4)GlcNAc(b1-3)Gal(b1-4)GlcNAc(b1-6)]GalNAc
# In short: as §1
# [19] = molecular target: Neu5Ac(a2-3)Gal(b1-4)GlcNAc(b1-3)Gal(b1-4)GlcNAc(b1-6)[Gal(b1-3)]GalNAc
# In short: as §1
# [20] = molecular target: Neu5Ac(a2-3)Gal(b1-4)GlcNAc(b1-3)Gal(b1-4)[Fuc(a1-3)]GlcNAc
# In short: as §1
# [21] = molecular target: Neu5Ac(a2-3)Gal(b1-4)GlcNAc(b1-3)GalNAc
# In short: as §1
# [22] = molecular target: Neu5Ac(a2-3)Gal(b1-4)GlcNAc(b1-3)[Neu5Ac(a2-3)Gal(b1-4)GlcNAc(b1-6)]GalNAc
# In short: as §1
# [23] = molecular target: Neu5Ac(a2-3)Gal(b1-4)GlcNAc(b1-6)GalNAc
# In short: as §1
# [24] = molecular target: Neu5Ac(a2-3)Gal(b1-4)GlcNAc(b1-6)[Gal(b1-3)]GalNAc
# In short: as §1
# [25] = molecular target: Neu5Ac(a2-3)Gal(b1-4)GlcNAc(b1-6)[Neu5Ac(a2-3)Gal(b1-3)]GalNAc
# In short: as §1
# [26] = molecular target: Neu5Ac(a2-3)Gal(b1-4)GlcNAc6S
# In short: as §1
# [27] = molecular target: Neu5Ac(a2-3)Gal(b1-4)[Fuc(a1-3)]GlcNAc
# In short: as §1
# [28] = molecular target: Neu5Ac(a2-3)Gal(b1-4)[Fuc(a1-3)]GlcNAc(b1-2)Man
# In short: as §1
# [29] = molecular target: Neu5Ac(a2-3)Gal(b1-4)[Fuc(a1-3)]GlcNAc(b1-3)Gal
# In short: as §1
# [30] = molecular target: Neu5Ac(a2-3)Gal(b1-4)[Fuc(a1-3)]GlcNAc(b1-3)Gal(b1-4)GlcNAc
# In short: as §1
# [31] = molecular target: Neu5Ac(a2-3)Gal(b1-4)[Fuc(a1-3)]GlcNAc(b1-3)Gal(b1-4)[Fuc(a1-3)]GlcNAc(b1-3)Gal(b1-4)[Fuc(a1-3)]GlcNAc
# In short: as §1
# [32] = molecular target: Neu5Ac(a2-3)Gal(b1-4)[Fuc(a1-3)]GlcNAc(b1-3)GalNAc
# In short: as §1
# [33] = molecular target: Neu5Ac(a2-3)Gal(b1-4)[Fuc(a1-3)]GlcNAc(b1-6)[Gal(b1-3)]GalNAc
# In short: as §1
# [34] = molecular target: Neu5Ac(a2-3)Gal(b1-4)[Fuc(a1-3)]GlcNAc(b1-6)[Neu5Ac(a2-3)Gal(b1-3)]GalNAc
# In short: as §1
# [35] = molecular target: Neu5Ac(a2-3)Gal(b1-4)[Fuc(a1-3)]GlcNAc6S
# In short: as §1
# [36] = molecular target: Neu5Ac(a2-3)Gal6S(b1-4)GlcNAc
# In short: as §1
# [37] = molecular target: Neu5Ac(a2-3)Gal6S(b1-4)[Fuc(a1-3)]GlcNAc
# In short: as §1
binder,measurement,setting,value
"Clec18Av1 (Homo sapiens), A5D8T8 (protein) MLHPETSPGRGHLLAVLLALLGTAWAEVWPPQLQEQAPMAGALNRKESFLLLSLHNRLRSWVQPPAADMRRLDWSDSLAQLAQARAALCGTPTPSLASGLWRTLQVGWNMQLLPAGLVSFVEVVSLWFAEGQRYSHAAGECARNATCTHYTQLVWATSSQLGCGRHLCSAGQAAIEAFVCAYSPRGNWEVNGKTIVPYKKGAWCSLCTASVSGCFKAWDHAGGLCEVPRNPCRMSCQNHGRLNISTCHCHCPPGYTGRYCQVRCSLQCVHGRFREEECSCVCDIGYGGAQCATKVHFPFHTCDLRIDGDCFMVSSEADTYYRARMKCQRKGGVLAQIKSQKVQDILAFYLGRLETTNEVIDSDFETRNFWIGLTYKTAKDSFRWATGEHQAFTSFAFGQPDNHGFGNCVELQASAAFNWNDQRCKTRNRYICQFAQEHISRWGPGS",glycan array binding signal (z-score),Neu5Ac(a2-3)Gal(b1-4)Glc,-0.053
same,glycan array binding signal (z-score),[1],-0.844
same,glycan array binding signal (z-score),[2],0.838
same,glycan array binding signal (z-score),[3],-0.847
same,glycan array binding signal (z-score),[4],1.12
same,glycan array binding signal (z-score),[5],-0.84
same,glycan array binding signal (z-score),[6],1.84
same,glycan array binding signal (z-score),[7],-0.868
same,glycan array binding signal (z-score),[8],-0.8
same,glycan array binding signal (z-score),[9],0.446
same,glycan array binding signal (z-score),[10],-0.864
same,glycan array binding signal (z-score),[11],-0.867
same,glycan array binding signal (z-score),[12],-0.761
same,glycan array binding signal (z-score),[13],-0.802
same,glycan array binding signal (z-score),[14],-0.163
same,glycan array binding signal (z-score),[15],-0.814
same,glycan array binding signal (z-score),[16],0.256
same,glycan array binding signal (z-score),[17],-0.871
same,glycan array binding signal (z-score),[18],-0.55
same,glycan array binding signal (z-score),[19],0.766
same,glycan array binding signal (z-score),[20],-0.864
same,glycan array binding signal (z-score),[21],-0.884
same,glycan array binding signal (z-score),[22],-0.861
same,glycan array binding signal (z-score),[23],1.49
same,glycan array binding signal (z-score),[24],1.45
same,glycan array binding signal (z-score),[25],-0.857
same,glycan array binding signal (z-score),[26],-0.509
same,glycan array binding signal (z-score),[27],-0.677
same,glycan array binding signal (z-score),[28],-0.846
same,glycan array binding signal (z-score),[29],-0.84
same,glycan array binding signal (z-score),[30],0.154
same,glycan array binding signal (z-score),[31],-0.719
same,glycan array binding signal (z-score),[32],0.088
same,glycan array binding signal (z-score),[33],0.892
same,glycan array binding signal (z-score),[34],0.921
same,glycan array binding signal (z-score),[35],-0.818
same,glycan array binding signal (z-score),[36],-0.585
same,glycan array binding signal (z-score),[37],-0.832
